Earlier results on one molecule are cited in article PMC7884015 (Journal of Agricultural and Food Chemistry, 2021).

The subject of the data set is honey bees. Particulars: cited from earlier work.

For `CN1[C@@H]2CC[C@H]1C[C@@H](OC(=O)C(CO)c1ccccc1)C2` (stereo partly shown) [atropine, Atropine, reference compound], the LD50 was 0.1%.
